PubChem BioAssay AID504764 – Drosophila RNAi Screening Center – 2011
In all, the deposit lists about 22,000 reagents; shown is an unselected part of those with a known target gene and a result. In the full data, 403 (1.9%) are marked active. 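Unnormalised raw counts per well; ratio z-scores behind the hit calls and whether each hit raises or lowers signal are not deposited.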 A plus sign joins genes that one reagent is predicted to hit. Not stated in the record: the amount of reagent.

Purpose: 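Knock-downs that raise or lower a Notch target reporter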 (primary screen)
Cell system: Drosophila Kc167 cells
Reagent: long dsRNA against Drosophila genes
Time to read-out: about 5 days (4 days dsRNA, then 24 h after transfection)
Treatment: transfection of constitutively active membrane-tethered Notch lacking the extracellular domain, read 24 h later
Measurement: 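Light from a Notch-responsive E(spl)m3 luciferase reporter under active Notch, with control-promoter and no-Notch reporter wells to normalise; raw counts from paired wells a and b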
Direction: induced reporter light, run 1, well a and induced reporter light, run 1, well b: higher = more light from the Notch target reporter with active Notch; control promoter light, run 1, well a and control promoter light, run 1, well b: higher = more light from the viral control promoter (cell number, transfection, viability); uninduced reporter light, run 1, well a: higher = more light from the Notch target reporter without active Notch
Call rule: 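Wells with low control signal or poorly matching duplicates excluded; duplicates averaged; per source plate, z beyond ±2 for induced/control log2 ratio or beyond ±1.8 for induced/uninduced marks a hit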
Calls: active = modifier hit (raised or lowered Notch signal); inactive = not a hit

CG7606 [DRSC13246] showed induced reporter light, run 1, well a = 73470; induced reporter light, run 1, well b = 60135; control promoter light, run 1, well a = 84955; control promoter light, run 1, well b = 66840; uninduced reporter light, run 1, well a = 8365; inactive.
Against CG7606 [DRSC16268], the entry reads induced reporter light, run 1, well a = 2.39e5; induced reporter light, run 1, well b = 2.11e5; control promoter light, run 1, well a = 2.11e5; control promoter light, run 1, well b = 2.36e5; uninduced reporter light, run 1, well a = 18885; inactive.
After knock-down of Hsp26 [DRSC11189], the record shows induced reporter light, run 1, well a = 78540; induced reporter light, run 1, well b = 1.05e5; control promoter light, run 1, well a = 64780; control promoter light, run 1, well b = 28395; uninduced reporter light, run 1, well a = 8815; inactive.
Knock-down of CG3339 [DRSC13821] gave: induced reporter light, run 1, well a = 2.26e5; induced reporter light, run 1, well b = 2.03e5; control promoter light, run 1, well a = 2.26e5; control promoter light, run 1, well b = 2.40e5; uninduced reporter light, run 1, well a = 17670; inactive.
Depletion of CG3339 [DRSC15479] resulted in: induced reporter light, run 1, well a = 1.18e5; induced reporter light, run 1, well b = 1.47e5; control promoter light, run 1, well a = 2.10e5; control promoter light, run 1, well b = 1.99e5; uninduced reporter light, run 1, well a = 12085; inactive.
After knock-down of CG30047 [DRSC05340], the screen gave induced reporter light, run 1, well a = 1.70e5; induced reporter light, run 1, well b = 1.56e5; control promoter light, run 1, well a = 2.26e5; control promoter light, run 1, well b = 2.90e5; uninduced reporter light, run 1, well a = 18285; inactive.
With knock-down of CG4984 + CG4975 [DRSC06907] the results were induced reporter light, run 1, well a = 1.39e5; induced reporter light, run 1, well b = 84355; control promoter light, run 1, well a = 1.20e5; control promoter light, run 1, well b = 1.46e5; uninduced reporter light, run 1, well a = 9645; inactive.
Knock-down of CG4984 + CG4975 [DRSC06908] gave: induced reporter light, run 1, well a = 1.07e5; induced reporter light, run 1, well b = 1.27e5; control promoter light, run 1, well a = 2.06e5; control promoter light, run 1, well b = 2.25e5; uninduced reporter light, run 1, well a = 8155; inactive.
Against CG3328 [DRSC04357], the entry reads induced reporter light, run 1, well a = 1.70e5; induced reporter light, run 1, well b = 1.85e5; control promoter light, run 1, well a = 1.81e5; control promoter light, run 1, well b = 1.61e5; uninduced reporter light, run 1, well a = 13325; inactive.
With knock-down of kek6 [DRSC15299] the results were induced reporter light, run 1, well a = 85515; induced reporter light, run 1, well b = 99400; control promoter light, run 1, well a = 1.71e5; control promoter light, run 1, well b = 1.77e5; uninduced reporter light, run 1, well a = 8230; inactive.
With knock-down of koi [DRSC04980], the screen gave induced reporter light, run 1, well a = 2.54e5; induced reporter light, run 1, well b = 2.19e5; control promoter light, run 1, well a = 3.23e5; control promoter light, run 1, well b = 3.44e5; uninduced reporter light, run 1, well a = 22455; inactive.
Against CG42820 + CG42819 [DRSC02264], the values are induced reporter light, run 1, well a = 1.64e5; induced reporter light, run 1, well b = 2.09e5; control promoter light, run 1, well a = 1.33e5; control promoter light, run 1, well b = 1.46e5; uninduced reporter light, run 1, well a = 24715; inactive.
With knock-down of CG42820 + CG42819 [DRSC02265], the record shows induced reporter light, run 1, well a = 1.54e5; induced reporter light, run 1, well b = 1.89e5; control promoter light, run 1, well a = 94035; control promoter light, run 1, well b = 1.13e5; uninduced reporter light, run 1, well a = 16835; inactive.
For CG6749 [DRSC10704], the values are induced reporter light, run 1, well a = 2.16e5; induced reporter light, run 1, well b = 1.44e5; control promoter light, run 1, well a = 1.93e5; control promoter light, run 1, well b = 1.87e5; uninduced reporter light, run 1, well a = 9732; inactive.
mRpL2 [DRSC10896] scored induced reporter light, run 1, well a = 1.01e5; induced reporter light, run 1, well b = 1.18e5; control promoter light, run 1, well a = 2.41e5; control promoter light, run 1, well b = 1.43e5; uninduced reporter light, run 1, well a = 6170; inactive.
Knock-down of CG33640 [DRSC01324] gave: induced reporter light, run 1, well a = 1.26e5; induced reporter light, run 1, well b = 1.31e5; control promoter light, run 1, well a = 1.37e5; control promoter light, run 1, well b = 1.51e5; uninduced reporter light, run 1, well a = 9780; inactive.
Depletion of Cluap1 [DRSC20637] gave: induced reporter light, run 1, well a = 68230; induced reporter light, run 1, well b = 99460; control promoter light, run 1, well a = 83015; control promoter light, run 1, well b = 96640; uninduced reporter light, run 1, well a = 10140; inactive.
Against Tim9a [DRSC19753], the entry reads induced reporter light, run 1, well a = 1.22e5; induced reporter light, run 1, well b = 1.28e5; control promoter light, run 1, well a = 1.90e5; control promoter light, run 1, well b = 2.27e5; uninduced reporter light, run 1, well a = 8095; inactive.
Against Tsp42Ej [DRSC06113], the entry reads induced reporter light, run 1, well a = 1.83e5; induced reporter light, run 1, well b = 1.89e5; control promoter light, run 1, well a = 1.73e5; control promoter light, run 1, well b = 1.56e5; uninduced reporter light, run 1, well a = 13420; inactive.
Knock-down of Arpc1 [DRSC03438] resulted in: induced reporter light, run 1, well a = 2.07e5; induced reporter light, run 1, well b = 2.12e5; control promoter light, run 1, well a = 1.61e5; control promoter light, run 1, well b = 1.60e5; uninduced reporter light, run 1, well a = 15460; inactive.
Against CG1537 [DRSC19662], the entry reads induced reporter light, run 1, well a = 1.46e5; induced reporter light, run 1, well b = 1.34e5; control promoter light, run 1, well a = 3.09e5; control promoter light, run 1, well b = 2.66e5; uninduced reporter light, run 1, well a = 10425; inactive.
Against CG41020 (retired record) [DRSC20866], the entry reads induced reporter light, run 1, well a = 2.12e5; induced reporter light, run 1, well b = 2.23e5; control promoter light, run 1, well a = 2.87e5; control promoter light, run 1, well b = 3.10e5; uninduced reporter light, run 1, well a = 16550; inactive.
Against Uch-L5 [DRSC11314], the entry reads induced reporter light, run 1, well a = 1.12e5; induced reporter light, run 1, well b = 98595; control promoter light, run 1, well a = 76385; control promoter light, run 1, well b = 31240; uninduced reporter light, run 1, well a = 8370; inactive.
After knock-down of CG1503 [DRSC20512] the results were induced reporter light, run 1, well a = 1.78e5; induced reporter light, run 1, well b = 1.58e5; control promoter light, run 1, well a = 1.37e5; control promoter light, run 1, well b = 70705; uninduced reporter light, run 1, well a = 13420; inactive.

Reformatted: results already given.
target | amplicon | induced reporter light, run 1, well a | induced reporter light, run 1, well b | control promoter light, run 1, well a | control promoter light, run 1, well b | uninduced reporter light, run 1, well a | Outcome
Hsp26 | DRSC11189 | 78540 | 1.05e5 | 64780 | 28395 | 8815 | inactive
CG3339 | DRSC13821 | 2.26e5 | 2.03e5 | 2.26e5 | 2.40e5 | 17670 | inactive
